Binding data for 40 molecules are collected here from patent CN114605540A.

The chains behind the UniProt entries cited, without tags or fusion partners. Residues count along the entry.
UniProt P10747, residues 19-152: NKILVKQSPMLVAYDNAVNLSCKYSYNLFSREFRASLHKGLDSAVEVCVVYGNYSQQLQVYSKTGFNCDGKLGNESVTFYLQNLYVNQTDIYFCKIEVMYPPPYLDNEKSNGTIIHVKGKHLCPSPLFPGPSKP

Sequences and labels used below:
B1: P1-7C (VHH)
VHH: AVQLVESGGGLVQPGGSLRLSCVASGDIFGFYAMGWYRQAPEKQRELVATITSGSITDYADSVKGRFQISRDNAKNTVYLQMNSLKPEDTAVYYCRLAPLESFDSTWRRVGGTGMDYWGKGTQVTVSS
B2: P1-6E (VHH)
VHH: B1 VHH with D27N
B3: P1-3C (VHH)
VHH: AVQLVESGGGLVQPGGSLRLSCAASGSIFSIEIMGWYRQAPGKQRELVAGITGGGLTNYADSVKGRFTISRDNAKDTVYLQMNSLKPEDTADYYCNAQTRRVGGLPGGSWGQGTQVTVSS
B4: P2-2H (VHH)
VHH: B3 VHH with L11S, D76N
B5: P2-4G (VHH)
VHH: B3 VHH with L18R, D76N
B6: P2-8F (VHH)
VHH: B3 VHH with S27G, E32N, I33L, G53D, D76N, Q81R, D92V
B7: P1-9E (VHH)
VHH: AVQLVESGGGLVPAGGSLRLSCGTSGPIFGHYTMDWYRQAPGNQRELVAGITDGGLLNYEDSVKGRFTISRDNAKNTVYLQMNSLKPEDTAVYYCHVRVLFSHYWGQGTQVTVSS
B8: P1-11C (VHH)
VHH: AVQLVESGGGLVQPGGSLRLSCAASGSIFSIEIMGWYRQAPGKQRELVAGITSGGLTNYADSVKGRFTISRDNAKNTVYLQMNSLKPEDTAVYYCNAQTRRVGGLPGGSWGQGTQVTVS
B9: P2-6G (VHH)
VHH: AVQLVESGGGLVQAGGSLRLSCAASRSIFRIEVMGWYRQAPGKQRELVAGITSGGLTNYAGSVKGRFTISRDNAENTVYLQMDSLKPEDTAVYYCNAQTRRLGGLPGGSWGQGTQVTVSS
B10: P1-6C (VHH)
VHH: B3 VHH with G53S, D76N, D92V
B11: P1-8C (VHH)
VHH: B3 VHH with G53S, N73D, D76N, D92V
B12: P2-5E (VHH)
VHH: B3 VHH with G53S, D76N, V78M, D92V
B13: P2-2F (VHH)
VHH: B9 VHH with A14P, T68A
B14: P1-6H (VHH)
VHH: B9 VHH with A14P, R26G, R30S, G54N, G61D, D83N, A91G, L102I
B15: P2-1G (VHH)
VHH: B3 VHH with G53S, T68I, D76N, D92V
B16: P1-8D (VHH)
VHH: B3 VHH with D76N
B17: P1-1A (VHH)
VHH: B9 VHH with A14P
B18: P2-7F (VHH)
VHH: B9 VHH with A14S
B19: P1-8F (VHH)
VHH: B9 VHH with A14P, I31V
B20: P2-2C (VHH)
VHH: B3 VHH with L11S, G53S, D76N, D92V
B21: P1-4C (VHH)
VHH: B3 VHH with Q13L, G53S, D76N, D92V, G103E
B22: P2-2D (VHH)
VHH: B3 VHH with G53S, D76N, D92V, Q112L
B23: P1-9D (VHH)
VHH: B3 VHH with G53S, D76N, V78A, D92V
B24: P1-8H (VHH)
VHH: AVQLVESGGGLVQAGGSLRLSCAASGLTFSHYAMGWFRQAPGKEREFVAAISWSGGSTYYADSVKGRFTISRDNAKNTVFLQMNNLKPEDTAVYYCAAGVLYIGDYPGSYQYDYWGQGTQVTVSS
B25: P1-12E (VHH)
VHH: B24 VHH with K65E, N85S
B26: P1-1C (VHH)
VHH: B24 VHH with N85S
B27: P1-2F (VHH)
VHH: B24 VHH with Q13R, N85S
B28: P2-4B (VHH)
VHH: B24 VHH with N84D, N85S
B29: P2-8D (VHH)
VHH: B24 VHH with T58A, N85S
B30: P2-10B (VHH)
VHH: B24 VHH with K43R, N85S, P107L
B31: P2-11H (VHH)
VHH: B24 VHH with N85S, Y102H
B32: P2-10F (VHH)
VHH: B24 VHH with A61V, N85S
B33: P1-7F (VHH)
VHH: B24 VHH with S30G, N85S
B34: P1-12C (VHH)
VHH: B24 VHH with T78M, N85S
B35: P2-11G (VHH)
VHH: B24 VHH with S63T, N85S
B36: P1-5A (VHH)
VHH: B24 VHH with A75P, N85S
B37: P2-1H (VHH)
VHH: B24 VHH with G42E, N85S
B38: P2-3G (VHH)
VHH: B24 VHH with N74S, N85S
B39: P1-10B (VHH)
VHH: AVQLVESGGGLVQAGGSLRLSCAASGRTFRAYAMGWFRQAPGKEREFVAAISWSGGSTYYADSVKGRFTISRDNAKNTVYLQMNSLKPEDTAVYYCAASPFFDSSWYDGWAPGGAGRGEYDYWGQGTQVTVSS
B40: P2-5C (VHH)
VHH: AVQLVESGGGLVQAGDSLRLSCAASWGTLSSYYMGWFRQAPGAEREWVGGISRRGDSIFYGDSVKGRTTISRDNAKNTVYLQMNSLKPEDTAVYYCAAASERLVARLSWEYDYWGQGTQVTVSS

Residue numbers refer to the chain shown, from its start. These are yes or no findings as the source states them, for the method shown. Some binding calls cover weakened binding; strength is not graded here.

The target in this assay is CD28 ECD蛋白 (UniProt P10747). The assay is described as follows: monoclonal phage ELISA on coated CD28, two rounds of verification.
In the case of B1, the binding entry is given as “binds”. The value for B2 was “binds”; that for B3 was “binds”. The value for B4 was “binds”; that for B5 was “binds”. The value for B6 was “binds”; that for B7 was “binds”. Consider B8, for which the binding entry is on record as “binds”. With B9, the binding result is given as “binds”. The value for B10 was “binds”. For the molecule B11, the binding entry is given as “binds”. The value for B12 was “binds”; that for B13 was “binds”.

On to B14, for which the binding entry is on record as “binds”. In the case of B15 it was “binds”; in that of B16, “binds”; in that of B17, “binds”. The value for B18 was “binds”; that for B19 was “binds”; that for B20 was “binds”. The value for B21 was “binds”; that for B22 was “binds”; that for B23 was “binds”. Turning to B24, the binding result is on record as “binds”.

As for B25, the binding result is “binds”. In the case of B26 it was “binds”; in that of B27, “binds”. Turning to B28, the binding entry is “binds”. For B29, the binding result is on record as “binds”. Regarding B30, the binding entry is recorded as “binds”. The value for B31 was “binds”. For B32, the binding entry is given as “binds”. As for B33, the binding result is recorded as “binds”. In the case of B34 it was “binds”. In the case of B35 it was “binds”; in that of B36, “binds”.

For the molecule B37, the binding result is “binds”. Take B38: the binding result was “binds”. In the case of B39 it was “binds”.

As for B40, the binding entry is listed as “binds”.
